In article PMC11926216:
Results are given in words; binding and its absence hold for the method and conditions named. Binding seen in cells or lysates may run through a third protein.

Chains of the proteins cited; added tags and fusions are not shown. Residues count along the entry.
UniProt Q13443, residues 29-819: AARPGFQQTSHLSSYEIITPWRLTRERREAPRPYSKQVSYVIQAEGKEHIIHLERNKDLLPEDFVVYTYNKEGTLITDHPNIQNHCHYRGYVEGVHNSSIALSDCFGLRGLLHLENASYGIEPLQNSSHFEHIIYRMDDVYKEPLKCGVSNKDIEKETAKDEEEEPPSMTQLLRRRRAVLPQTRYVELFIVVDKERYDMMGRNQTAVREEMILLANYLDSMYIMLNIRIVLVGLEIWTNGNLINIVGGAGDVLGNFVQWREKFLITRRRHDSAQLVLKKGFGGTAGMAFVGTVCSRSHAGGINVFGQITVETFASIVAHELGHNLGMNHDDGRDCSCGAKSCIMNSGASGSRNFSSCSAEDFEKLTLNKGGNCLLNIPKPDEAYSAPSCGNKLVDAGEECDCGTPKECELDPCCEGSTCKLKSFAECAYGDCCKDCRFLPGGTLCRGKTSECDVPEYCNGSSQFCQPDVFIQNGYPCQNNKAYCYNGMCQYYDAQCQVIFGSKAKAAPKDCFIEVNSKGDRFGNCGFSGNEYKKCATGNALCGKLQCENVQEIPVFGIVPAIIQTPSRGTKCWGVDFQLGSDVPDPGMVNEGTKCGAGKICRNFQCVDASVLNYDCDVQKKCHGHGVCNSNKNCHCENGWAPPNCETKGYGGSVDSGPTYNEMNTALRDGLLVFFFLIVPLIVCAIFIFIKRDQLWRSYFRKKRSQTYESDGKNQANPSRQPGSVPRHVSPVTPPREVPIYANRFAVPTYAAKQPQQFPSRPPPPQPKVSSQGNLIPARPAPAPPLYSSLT
UniProt P35367: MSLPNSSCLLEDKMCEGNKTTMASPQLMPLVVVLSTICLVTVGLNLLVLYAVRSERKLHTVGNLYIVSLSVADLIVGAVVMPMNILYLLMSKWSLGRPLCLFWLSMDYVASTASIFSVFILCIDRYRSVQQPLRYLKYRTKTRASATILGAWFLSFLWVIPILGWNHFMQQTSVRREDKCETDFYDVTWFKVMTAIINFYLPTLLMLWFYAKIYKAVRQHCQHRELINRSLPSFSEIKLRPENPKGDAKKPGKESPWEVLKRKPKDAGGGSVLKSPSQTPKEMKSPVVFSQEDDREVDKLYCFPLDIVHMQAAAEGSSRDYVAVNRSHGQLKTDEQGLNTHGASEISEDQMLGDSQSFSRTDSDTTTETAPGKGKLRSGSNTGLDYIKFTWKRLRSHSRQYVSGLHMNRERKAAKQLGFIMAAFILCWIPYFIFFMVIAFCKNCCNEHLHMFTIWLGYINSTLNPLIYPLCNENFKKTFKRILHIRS

Molecular target: a disintegrin and metalloprotease 9 (human (endogenous in SAS)) (UniProt Q13443)
Assay: co-IP; endogenous proteins; SAS cells lysed in NETN buffer (150 mM NaCl, 20 mM Tris-base, 0.5% NP-40, 1 mM EDTA); 2 mg lysate with anti-ADAM9 antibody overnight at 4 °C, protein A Sepharose beads 1 h, five washes with NETN, Western blotting

## Histamine receptor H1 (from UniProt P35367 1-487)
  binding: no binding
